Results on one substance are retold here after paper PMC7532487.

The chains behind the UniProt entries cited, without tags or fusion partners.
UniProt Q80V62: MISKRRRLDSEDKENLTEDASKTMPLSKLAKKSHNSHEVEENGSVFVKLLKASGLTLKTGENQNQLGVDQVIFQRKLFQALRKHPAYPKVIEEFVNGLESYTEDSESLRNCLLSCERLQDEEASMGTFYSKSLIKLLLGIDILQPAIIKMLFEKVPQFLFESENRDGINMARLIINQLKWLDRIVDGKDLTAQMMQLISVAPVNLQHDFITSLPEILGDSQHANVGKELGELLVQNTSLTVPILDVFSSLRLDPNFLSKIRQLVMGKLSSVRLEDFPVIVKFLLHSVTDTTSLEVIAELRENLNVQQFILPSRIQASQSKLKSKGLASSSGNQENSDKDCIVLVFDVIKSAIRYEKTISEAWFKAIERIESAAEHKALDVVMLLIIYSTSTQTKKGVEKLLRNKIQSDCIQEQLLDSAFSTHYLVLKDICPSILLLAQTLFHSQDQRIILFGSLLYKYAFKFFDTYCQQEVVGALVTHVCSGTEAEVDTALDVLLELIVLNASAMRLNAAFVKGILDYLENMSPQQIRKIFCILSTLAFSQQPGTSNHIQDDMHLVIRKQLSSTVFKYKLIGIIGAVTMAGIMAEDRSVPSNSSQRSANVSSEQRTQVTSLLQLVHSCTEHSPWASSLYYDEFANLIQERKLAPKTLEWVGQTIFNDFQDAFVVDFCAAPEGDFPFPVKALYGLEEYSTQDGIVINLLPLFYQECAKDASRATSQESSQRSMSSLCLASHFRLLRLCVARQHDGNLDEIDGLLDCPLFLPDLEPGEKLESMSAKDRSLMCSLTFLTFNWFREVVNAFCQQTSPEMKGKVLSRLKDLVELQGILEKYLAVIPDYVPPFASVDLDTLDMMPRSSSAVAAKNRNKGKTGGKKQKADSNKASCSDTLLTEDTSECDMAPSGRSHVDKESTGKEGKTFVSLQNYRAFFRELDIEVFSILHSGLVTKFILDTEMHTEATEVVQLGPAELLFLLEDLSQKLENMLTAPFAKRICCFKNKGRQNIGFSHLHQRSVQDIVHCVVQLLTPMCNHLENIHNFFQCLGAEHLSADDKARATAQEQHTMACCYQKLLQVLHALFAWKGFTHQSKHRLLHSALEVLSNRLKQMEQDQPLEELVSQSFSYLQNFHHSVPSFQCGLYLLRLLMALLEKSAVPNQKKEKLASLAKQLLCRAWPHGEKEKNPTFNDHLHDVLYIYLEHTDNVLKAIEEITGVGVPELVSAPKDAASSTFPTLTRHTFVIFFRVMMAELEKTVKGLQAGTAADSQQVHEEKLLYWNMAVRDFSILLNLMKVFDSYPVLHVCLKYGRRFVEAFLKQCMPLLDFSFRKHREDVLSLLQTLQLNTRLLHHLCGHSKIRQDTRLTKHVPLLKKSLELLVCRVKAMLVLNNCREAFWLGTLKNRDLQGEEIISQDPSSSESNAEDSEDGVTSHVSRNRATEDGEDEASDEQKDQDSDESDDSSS
UniProt P48754: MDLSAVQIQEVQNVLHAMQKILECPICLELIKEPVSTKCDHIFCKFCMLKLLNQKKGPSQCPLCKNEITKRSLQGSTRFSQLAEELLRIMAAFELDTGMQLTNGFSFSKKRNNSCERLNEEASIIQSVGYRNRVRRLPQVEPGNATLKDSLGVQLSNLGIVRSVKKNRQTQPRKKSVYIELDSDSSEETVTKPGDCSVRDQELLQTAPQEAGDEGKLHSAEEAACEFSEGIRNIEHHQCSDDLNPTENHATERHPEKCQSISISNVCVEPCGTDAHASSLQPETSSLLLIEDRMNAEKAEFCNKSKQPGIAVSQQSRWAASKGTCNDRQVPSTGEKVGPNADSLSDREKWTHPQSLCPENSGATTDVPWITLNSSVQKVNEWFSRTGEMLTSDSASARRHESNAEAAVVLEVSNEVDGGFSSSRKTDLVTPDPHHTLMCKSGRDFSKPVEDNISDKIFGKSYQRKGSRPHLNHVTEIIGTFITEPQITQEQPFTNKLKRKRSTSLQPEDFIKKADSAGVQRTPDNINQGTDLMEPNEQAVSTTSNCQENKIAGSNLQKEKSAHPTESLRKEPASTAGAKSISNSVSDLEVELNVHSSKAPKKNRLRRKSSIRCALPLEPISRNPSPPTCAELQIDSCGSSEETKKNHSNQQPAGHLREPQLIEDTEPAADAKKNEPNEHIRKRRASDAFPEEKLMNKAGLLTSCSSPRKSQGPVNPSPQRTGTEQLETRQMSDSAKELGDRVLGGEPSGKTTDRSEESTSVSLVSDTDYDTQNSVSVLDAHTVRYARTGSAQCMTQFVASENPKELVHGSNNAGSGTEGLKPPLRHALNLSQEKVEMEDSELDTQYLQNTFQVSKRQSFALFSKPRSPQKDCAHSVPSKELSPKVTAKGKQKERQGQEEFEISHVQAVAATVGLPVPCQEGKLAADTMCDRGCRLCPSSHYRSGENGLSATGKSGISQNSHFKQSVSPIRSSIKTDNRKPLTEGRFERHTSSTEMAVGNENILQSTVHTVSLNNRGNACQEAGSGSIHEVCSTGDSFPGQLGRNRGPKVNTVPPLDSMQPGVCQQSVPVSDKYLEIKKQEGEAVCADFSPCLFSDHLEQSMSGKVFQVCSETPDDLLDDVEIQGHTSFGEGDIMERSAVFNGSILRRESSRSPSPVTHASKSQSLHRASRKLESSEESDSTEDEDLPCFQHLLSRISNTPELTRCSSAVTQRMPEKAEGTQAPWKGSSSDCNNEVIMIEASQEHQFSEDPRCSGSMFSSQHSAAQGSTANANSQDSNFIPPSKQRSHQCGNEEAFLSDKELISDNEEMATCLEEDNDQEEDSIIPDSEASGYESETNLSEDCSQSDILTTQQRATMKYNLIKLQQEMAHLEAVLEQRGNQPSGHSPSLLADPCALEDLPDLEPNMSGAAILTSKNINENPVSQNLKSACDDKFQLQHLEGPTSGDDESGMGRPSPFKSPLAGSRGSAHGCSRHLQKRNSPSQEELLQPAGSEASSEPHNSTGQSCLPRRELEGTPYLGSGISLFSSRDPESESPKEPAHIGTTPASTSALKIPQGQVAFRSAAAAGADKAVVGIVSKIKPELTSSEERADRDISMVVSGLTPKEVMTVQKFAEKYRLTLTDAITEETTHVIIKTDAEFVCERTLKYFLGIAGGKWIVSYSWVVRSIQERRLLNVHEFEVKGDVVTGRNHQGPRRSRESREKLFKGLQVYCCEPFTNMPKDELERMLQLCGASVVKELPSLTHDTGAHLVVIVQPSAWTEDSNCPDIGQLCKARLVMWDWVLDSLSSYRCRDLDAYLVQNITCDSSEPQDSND

These are yes or no findings as the source states them, for the method shown. In cells and extracts the contact can be indirect. Some entries that bind do so weakly or less than the wild type.

For experiment [1], the target named is Fancd2-Flag (Fanconi anemia complementation group D2) (UniProt Q80V62). Description: co-IP; NE4C cells co-transfected with Fancd2-Flag and Brca1-Myc for 48 h, treated with 0.1 uM MMC or 0.1 uM MMC + 0.5 mM Hcy for 24 h; lysis in 0.1% NP40 buffer, Flag-beads 2 h at 4 °C, blot with anti-Myc.
The target is the same in experiment [2]. Description: condition: only control cells (saline) without MMC-induced DNA damage; co-IP; NE4C cells co-transfected with Fancd2-Flag and Brca1-Myc for 48 h, control group (saline, no MMC, no DNA damage); lysis in 0.1% NP40 buffer, Flag-beads 2 h at 4 °C, blot with anti-Myc.

As to “Brca1-Myc (Breast Cancer 1) (from UniProt P48754 1-1812)”, the binding entry in experiment [1] is “binds”; in experiment [2], “no binding”.
